Data set [1] has as its system Hemoglobin (Hb). Put plainly: SELEX. Conditions: purified native protein; single-stranded DNA.
For the next data set, the system named is Hemoglobin A1c (HbA1c). Put plainly: SELEX. Conditions: obtained from 7 positive/negative rounds and competitive analysis; PBS 0.01 M pH 7.4 wash; purified native protein; single-stranded DNA.
Data set [2] deals with Hemoglobin (Hb). Put plainly: pull-down. Conditions: weaker band than HbA1c beads, stated not to bind Hb; chemiluminescence significantly reduced with anti-Hb detection antibody; purified native protein; label: 5' biotin (blood detection assay); single-stranded DNA.

For part of these data: No signal at the amounts used counts as a negative. For part of these data: For at least one entry, the source does not settle the construct or the ends of the probe.

As to “ACAGCACCACAGACCAACAGCTACCATCTAACACTCGCGTCGTCTCCCTCACCTGGTGTTTGTCTTCCTGCC [Hb-specific aptamer SEQ ID NO: 8]”, the selection result in the data set with Hemoglobin (Hb) [1] is recorded as “selected”.
With “ACAGCACCACAGACCACGCCCCCCCCCGTCCGCCCCTCCTAAGGCCGCGACGATGTGTTTGTCTTCCTGCCA [HbA1c-specific aptamer SEQ ID NO: 4]”, the selection result in the data set with Hemoglobin A1c (HbA1c) is “selected”.
For “TGGCAGGAAGACAAACACATCGTCGCGGCCTTAGGAGGGGCGGACGGGGGGGGGCGTGGTCTGTGGTGCTGT [HbA1c-specific aptamer SEQ ID NO: 3]”, the binding result with Hemoglobin (Hb) [2] is recorded as “no binding”.

These data come from patent publication US20150111306, “HEMOGLOBIN A1c-SPECIFIC APTAMER, HEMOGLOBIN-SPECIFIC APTAMER, AND APPLICATIONS THEREOF” (National Tsing Hua University, published 2015).
